Reference: patent US20240124883

Legend:
[1] = molecular target: alpha-synuclein 130 monomer (C-terminally truncated) (Homo sapiens) (UniProt P37840); assay: binding assay; settings: slot blot, fibril-specific, PBST 4 C; purified recombinant protein; label: biotin; single-stranded DNA
[2] = molecular target: amyloid beta 42 (Abeta42) monomer (UniProt P05067); assay: binding assay; settings: slot blot, specificity control; purified recombinant protein; label: biotin; single-stranded DNA
[3] = test system: amyloid Bri (ABri) fibrils; assay: binding assay; settings: slot blot; label: biotin; single-stranded DNA
[4] = molecular target: amyloid beta 42 (Abeta42) fibrils (UniProt P05067); assay: binding assay; settings: slot blot; label: biotin; single-stranded DNA
[5] = molecular target: alpha-synuclein 140 monomer (full length) (Homo sapiens) (UniProt P37840); assay: binding assay; settings: slot blot; purified recombinant protein; protein details: untagged, E. coli BL21(DE3) pRK172; label: biotin; single-stranded DNA
[6] = molecular target: beta-synuclein (monomers and fibrils) (UniProt Q16143); assay: binding assay; settings: slot blot; label: biotin; single-stranded DNA
[7] = molecular target: alpha-synuclein 107 fibrils (C-terminally truncated) (Homo sapiens) (UniProt P37840); assay: binding assay; settings: slot blot; purified recombinant protein; protein details: untagged, E. coli BL21(DE3) pET3a, fibrils; label: biotin; single-stranded DNA
[8] = molecular target: alpha-synuclein 122 fibrils (C-terminally truncated) (Homo sapiens) (UniProt P37840); assay: binding assay; settings: slot blot, PBST, 4 C overnight; purified recombinant protein; protein details: untagged, E. coli BL21(DE3) pET3a, fibrils; label: biotin; single-stranded DNA
[9] = molecular target: alpha-synuclein 140 fibrils (full length) (Homo sapiens) (UniProt P37840); assay: binding assay; settings: slot blot; purified recombinant protein; protein details: untagged, E. coli BL21(DE3) pRK172, fibrils; label: biotin; single-stranded DNA
[10] = molecular target: islet amyloid polypeptide (IAPP) fibrils (UniProt P10997); assay: binding assay; settings: slot blot; label: biotin; single-stranded DNA
tubulin = assay: binding assay; settings: slot blot; negative control protein; label: biotin; single-stranded DNA
[11] = molecular target: alpha-synuclein 115 monomer (C-terminally truncated) (Homo sapiens) (UniProt P37840); assay: binding assay; settings: slot blot, fibril-specific, PBST 4 C; purified recombinant protein; label: biotin; single-stranded DNA
[12] = molecular target: alpha-synuclein 107 monomer (C-terminally truncated) (Homo sapiens) (UniProt P37840); assay: binding assay; settings: slot blot, fibril-specific, PBST 4 C; purified recombinant protein; label: biotin; single-stranded DNA
[13] = molecular target: amyloid Bri (ABri) monomer (UniProt Q9Y287); assay: binding assay; settings: slot blot, specificity control; purified recombinant protein; label: biotin; single-stranded DNA
[14] = molecular target: islet amyloid polypeptide (IAPP) monomer (UniProt P10997); assay: binding assay; settings: slot blot, specificity control; purified recombinant protein; label: biotin; single-stranded DNA
[15] = molecular target: alpha-synuclein 130 fibrils (C-terminally truncated) (Homo sapiens) (UniProt P37840); assay: binding assay; settings: slot blot, purified recombinant protein, protein details: untagged, E. coli BL21(DE3) pET3a, fibrils, label: biotin, single-stranded DNA
[16] = molecular target: alpha-synuclein 122 monomer (Homo sapiens) (UniProt P37840); assay: binding assay; settings: slot blot; binds only fibril forms; purified recombinant protein; protein details: untagged, E. coli BL21(DE3) pET3a; label: biotin; single-stranded DNA
[17] = molecular target: gamma-synuclein (monomers and fibrils) (UniProt O76070); assay: binding assay; settings: slot blot; label: biotin; single-stranded DNA
[18] = molecular target: alpha-synuclein 115 fibrils (C-terminally truncated) (Homo sapiens) (UniProt P37840); assay: binding assay; settings: slot blot, purified recombinant protein, protein details: untagged, E. coli BL21(DE3) pET3a, fibrils, label: biotin, single-stranded DNA
[19] = molecular target: alpha-synuclein (wild type, expressed in HEK293 with alpha-syn 122 seeds) (Homo sapiens) (UniProt P37840); assay: activity in cells; settings: protein in cells, protein details: seeds are recombinant alpha-syn 1-122, single-stranded DNA, dose not given here
[20] = molecular target: alpha-synuclein 122 fibrils (C-terminally truncated) (Homo sapiens) (UniProt P37840); assay: inhibition of the protein; settings: inhibits alpha-syn 122 seeded aggregation of alpha-syn 140 (Th-S, EM, western) at seed:aptamer 1:1, 1:5, 1:20, 37 C, protein details: untagged, E. coli BL21(DE3) pET3a, label: biotin, single-stranded DNA, dose not given here
[21] = reactive only to 130, 122 and 107 forms
[22] = reactive to 122, 115 and 107 forms
[23] = reactive only to 122 and 107 forms

AGGGTCTCTTTCGTTTTGGTGTATGTTTCTTCATTATCGG [Apt5]
binding result [1]: no binding
binding result [2]: no binding
binding result [3]: no binding
binding result [4]: no binding
binding result [5]: no binding
binding result [6]: no binding
binding result [7]: binds
binding result [8]: binds
binding result [9]: no binding
binding result [10]: no binding
binding result (tubulin): no binding
binding result [11]: no binding
binding result [12]: no binding
binding result [13]: no binding
binding result [14]: no binding
binding result [15]: binds
binding result [16]: no binding
binding result [17]: no binding
binding result [18, 21]: no binding

CCATCACACACCATTGTTCACTCCCTGTCTCTCGCACGCT [Apt20]
binding result [1]: no binding
binding result [2]: no binding
binding result [3]: no binding
binding result [4]: no binding
binding result [5]: no binding
binding result [6]: no binding
binding result [7]: binds
binding result [8]: binds
binding result [9]: no binding
binding result [10]: no binding
binding result (tubulin): no binding
binding result [11]: no binding
binding result [12]: no binding
binding result [13]: no binding
binding result [14]: no binding
binding result [15, 22]: no binding
binding result [16]: no binding
binding result [17]: no binding
binding result [18]: binds

CGCCTCTGTCAAGTCCTTATTCACGTCTCAGTCCCTCCTA [Apt18]
binding result [1]: no binding
binding result [2]: no binding
binding result [3]: no binding
binding result [4]: no binding
binding result [5]: no binding
binding result [6]: no binding
binding result [7]: binds
binding result [8]: binds
binding result [9]: no binding
binding result [10]: no binding
binding result (tubulin): no binding
binding result [11]: no binding
binding result [12]: no binding
binding result [13]: no binding
binding result [14]: no binding
binding result [15, 23]: no binding
binding result [16]: no binding
binding result [17]: no binding
binding result [18, 23]: no binding

CGGGCTTTGTTATCCTGATGCTCCTCCTTCCTACCACTC [Apt3]
binding result [1]: no binding
binding result [2]: no binding
binding result [3]: no binding
binding result [4]: no binding
binding result [5]: no binding
binding result [6]: no binding
binding result [7]: binds
binding result [8]: binds
binding result [9]: no binding
binding result [10]: no binding
binding result (tubulin): no binding
binding result [11]: no binding
binding result [12]: no binding
binding result [13]: no binding
binding result [14]: no binding
binding result [15]: binds
binding result [16]: no binding
binding result [17]: no binding
binding result [18, 21]: no binding

CTAGTGTCGCCTTTTGCCTCGTTGTCTCCCATTTATCTCG [Apt7]
binding result [1]: no binding
binding result [2]: no binding
binding result [3]: no binding
binding result [4]: no binding
binding result [5]: no binding
binding result [6]: no binding
binding result [7]: binds
binding result [8]: binds
binding result [9]: no binding
binding result [10]: no binding
binding result (tubulin): no binding
binding result [11]: no binding
binding result [12]: no binding
binding result [13]: no binding
binding result [14]: no binding
binding result [15, 22]: no binding
binding result [16]: no binding
binding result [17]: no binding
binding result [18]: binds

CTGACACTCGGCTTTTTATCTTCCCTGCTTCGGTCCTGTC [Apt11]
functional effect of the aptamer ([19]; decreases insoluble pS129-alpha-syn in HEK cells with alpha-syn 122 seeds, seed:aptamer 1:1 and 1:5): active
binding result [1]: no binding
binding result [2]: no binding
binding result [3]: no binding
binding result [4]: no binding
binding result [5]: no binding
binding result [6]: no binding
binding result [7]: binds
binding result [8]: binds
binding result [9]: no binding
binding result [10]: no binding
binding result (tubulin): no binding
binding result [11]: no binding
binding result [12]: no binding
binding result [13]: no binding
binding result [14]: no binding
binding result [15]: binds
binding result [16]: no binding
binding result [17]: no binding
binding result [18]: binds
functional effect of the aptamer ([20]; stronger than Apt15, purified recombinant protein): active

CTTTCCTTTCCTGTCCGCTTCGATAACCCTTCACACATCC [Apt15]
functional effect of the aptamer ([19]; decreases insoluble pS129-alpha-syn in HEK cells, mainly when aptamer and seeds were co-transfected after 1 h incubation): active
binding result [1]: no binding
binding result [2]: no binding
binding result [3]: no binding
binding result [4]: no binding
binding result [5]: no binding
binding result [6]: no binding
binding result [7]: binds
binding result [8]: binds
binding result [9]: no binding
binding result [10]: no binding
binding result (tubulin): no binding
binding result [11]: no binding
binding result [12]: no binding
binding result [13]: no binding
binding result [14]: no binding
binding result [15]: binds
binding result [16]: no binding
binding result [17]: no binding
binding result [18]: binds
functional effect of the aptamer ([20]; purified recombinant protein): active

TAGCGTTCCCCCTCACTCCTTGGTTGGTCATCATCGTCCC [Apt9]
binding result [1]: no binding
binding result [2]: no binding
binding result [3]: no binding
binding result [4]: no binding
binding result [5]: no binding
binding result [6]: no binding
binding result [7]: binds
binding result [8]: binds
binding result [9]: no binding
binding result [10]: no binding
binding result (tubulin): no binding
binding result [11]: no binding
binding result [12]: no binding
binding result [13]: no binding
binding result [14]: no binding
binding result [15]: binds
binding result [16]: no binding
binding result [17]: no binding
binding result [18, 21]: no binding

For part of these data: Negatives hold for the conditions tested. For part of these data: Construct, isoform or probe ends are uncertain for at least one entry.
